The other results are listed elsewhere or left out.

Amino acid sequences for entries named in this document (tags omitted).
UniProt Q0JBA9, entry or part of it: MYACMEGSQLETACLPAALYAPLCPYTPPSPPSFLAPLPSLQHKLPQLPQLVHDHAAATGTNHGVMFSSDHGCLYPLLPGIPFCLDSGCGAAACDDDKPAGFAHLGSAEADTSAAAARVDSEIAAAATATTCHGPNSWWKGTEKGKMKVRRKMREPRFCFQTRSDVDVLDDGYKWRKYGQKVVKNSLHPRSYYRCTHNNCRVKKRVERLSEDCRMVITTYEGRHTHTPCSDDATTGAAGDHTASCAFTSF

The target in the experiment is OsWRKY34 (Oryza sativa, UniProt Q0JBA9 1-250). Description: protein-binding microarray (RPBM); PBS, 2% BSA, 51.3 ng/ul salmon testes DNA, 50 uM zinc acetate, 200 nM TF, 25 C, 1 h; high values mean tight binding. As to conditions: protein: recombinant; tags: N-terminal polyhistidine and DsRed monomer fusion (pET32a); label: CyDye5-dUTP incorporated in the synthesized complementary strand; 3' TTTTT single-stranded linker to array surface; dsDNA, one strand shown. The gist of the method:
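Binding signal is defined as the fluorescence intensity of each feature in arbitrary units, read on an Axon 4000B scanner. Transcription factors with N-terminal polyhistidine and DsRed fusions came from E. coli BL21-CodonPlus and were purified on Ni–NTA. They were incubated at 200 nM for 1 h at 25 °C on a custom Agilent array that had been made double-stranded with Cy5-dUTP, with 50 µM zinc acetate present, and the array was washed.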
For the sequence “TATCCACTACTACTACACTCCGTATTCACTAGTATGGCCCCGGAGTCACCTAGTGCAG”, the binding signal was 9690 fluorescence intensity (a.u.). Then “ACCTCGCTCACTCGCTCGCTCGATCACCGCGACCTCACTCCGGAGTCACCTAGTGCAG”, with 10800 fluorescence intensity (a.u.). As to “ATAGATATGGAAAAATATGAAAGAAAAAAATGATAGTATTCGGAGTCACCTAGTGCAG”, the binding signal is 16100 fluorescence intensity (a.u.).

“CAGCACGAGCGGCGAAGTGCTTGGGTGGGCTTCGTCTCCCCGGAGTCACCTAGTGCAG”: the binding signal is 8200 fluorescence intensity (a.u.). The same measure for “CCTCCAGCCCCGCGCGCATCCGCTCAGCTTGCTCGGCATCCGGAGTCACCTAGTGCAG”: 9480 fluorescence intensity (a.u.); for “ATGTAGTCTCTGGTTCGATCTATTTAACACATGGGAGGGACGGAGTCACCTAGTGCAG”: 10600 fluorescence intensity (a.u.). The same measure for “CAACACTGATGGGCTCATCTTTTCGCTTATACTATTTATACGGAGTCACCTAGTGCAG”: 8820 fluorescence intensity (a.u.); for “CCTCTCCCACCATCGTCTCCGCCATCGTTGTCGCCGTCGCCGGAGTCACCTAGTGCAG”: 9220 fluorescence intensity (a.u.); for “TATCTCCTATGTCTTCCAGGCTCTCTCTCTCGTTTACTCTCGGAGTCACCTAGTGCAG”: 9590 fluorescence intensity (a.u.). Then “GAATAGCCACGAGTCAGTCCGCGTACTTTACTATACTTTACGGAGTCACCTAGTGCAG”, with 8270 fluorescence intensity (a.u.). Consider “TGGTGGTGGAGGTTTAGGTGAGGGTTTTTGGTTAGGCGATCGGAGTCACCTAGTGCAG”, for which the binding signal was 11200 fluorescence intensity (a.u.). As to “ATAAAAACTAGTTTGGTGTGGTAGATGTTTTTTTTTACAACGGAGTCACCTAGTGCAG”, the binding signal is 9000 fluorescence intensity (a.u.). For “CTCCCTCAGTACATTACTCCCTCCGTTATCGTTTGACTTTCGGAGTCACCTAGTGCAG”, the binding signal is 10800 fluorescence intensity (a.u.). Then “CGGAAACACCCGTCTTACTGGCGAACCGCCGGCAACGGCGCGGAGTCACCTAGTGCAG”, with 8150 fluorescence intensity (a.u.); and “CGTTAGTGGTTCGTCCTGTTAATTCTGTCCTGCTACTTTACGGAGTCACCTAGTGCAG”, with 11700 fluorescence intensity (a.u.).

Take “TCTCTTCGCTCTGCCCACTTGCTAAACCATACCGGCGATACGGAGTCACCTAGTGCAG”: the binding signal is 9960 fluorescence intensity (a.u.). In the case of “AGGAGGAGGAGGAGGAGGAGGGGATTGTGACTTGTGATCTCGGAGTCACCTAGTGCAG”, the binding signal is 8450 fluorescence intensity (a.u.). With “TTTCCGTCTCTCTCTCCTGTGCTGGCCGCAAGCGAAGTCCCGGAGTCACCTAGTGCAG”, the binding signal was 9040 fluorescence intensity (a.u.).

As to “GCAAGTTTGACCAAATTAGTCTATTGTTTGGTTCATAGTCCGGAGTCACCTAGTGCAG”, the binding signal is 14300 fluorescence intensity (a.u.).

As for “TGCCATAAAACCGACCCGTCACGTACTAAAAACTCCTTCCCGGAGTCACCTAGTGCAG”, the binding signal is 9780 fluorescence intensity (a.u.). Then “TTTATGCGTGACTTATCCTTTTATTTTTTTTCATAATTTTCGGAGTCACCTAGTGCAG”, with 8290 fluorescence intensity (a.u.).

As to “GAGGTGGTGGTGGTGGTGGTGGATGGCGCCCTGCTTTGACCGGAGTCACCTAGTGCAG”, the binding signal was 23500 fluorescence intensity (a.u.). Then “TTCGCTCACAAGTCGCAAACAGTGATTTCACCTATCCTGTCGGAGTCACCTAGTGCAG”, with 8110 fluorescence intensity (a.u.); and “TGTCTTTTCCTTTTGGCCCATCTCTCTCTTTAGCCCAGGCCGGAGTCACCTAGTGCAG”, with 8150 fluorescence intensity (a.u.). Then “CATAATTATCCCATATTCTTATATCTCTATTCTATGCATTCGGAGTCACCTAGTGCAG”, with 8900 fluorescence intensity (a.u.). Then “GTTTTGTTGGGTCGGCGGCGGCGGGTGAGAGTGGAGAATGCGGAGTCACCTAGTGCAG”, with 12900 fluorescence intensity (a.u.). In the case of “CAATTTGGCATTTGGCATTTGCTAGTCTATAGTAGCAAATCGGAGTCACCTAGTGCAG”, the binding signal is 8130 fluorescence intensity (a.u.). Then “ATAGTAATTCCTCTTTTTCACAATGCAAGTCATTTTAGTACGGAGTCACCTAGTGCAG”, with 8500 fluorescence intensity (a.u.). The same measure for “GTTGGTCAAATTAAGTCAAGCTACGCACTCAGCCCTCTTTCGGAGTCACCTAGTGCAG”: 8050 fluorescence intensity (a.u.); for “CATTCATGGGCCAAGTTTAGCCATCTTGTTATGTTACATCCGGAGTCACCTAGTGCAG”: 10500 fluorescence intensity (a.u.). Turning to “TTGAGGGGATTGTTGGGGAATGGGGCCTTATTAGGGATATCGGAGTCACCTAGTGCAG”, the binding signal is 11100 fluorescence intensity (a.u.). Take “TCTCACTTCCAGATGCGTGTTTTTTAGGCAACATGATTTCCGGAGTCACCTAGTGCAG”: the binding signal was 9900 fluorescence intensity (a.u.). The same measure for “ATGACAATGGATACTTCTCAATATCTGTCCTAGTTTGTTTCGGAGTCACCTAGTGCAG”: 8110 fluorescence intensity (a.u.); for “GCGTGACATCATCTTTATTTCGTTCGCTCCATCTCTGAACCGGAGTCACCTAGTGCAG”: 8260 fluorescence intensity (a.u.).

In the case of “GTTGTCTCGTCTCGTCAGTTGAGTTGAGTAGTGTTGACTTCGGAGTCACCTAGTGCAG”, the binding signal was 9250 fluorescence intensity (a.u.). Then “ACACACAACATCACCTTGTTTCTTCTACGAGTGCTTCCGTCGGAGTCACCTAGTGCAG”, with 8160 fluorescence intensity (a.u.); and “TGATGATCGATTCAATCCTAGACTCCCAGTACCTCCATATCGGAGTCACCTAGTGCAG”, with 8440 fluorescence intensity (a.u.); and “CCGTTTCAGCCGTCCGATTTCACACGTGGACGTCCACGATCGGAGTCACCTAGTGCAG”, with 11000 fluorescence intensity (a.u.). Turning to “GCACGGCTCATTTGCCACTACCGTGCTTGGGCCGGCGCTTCGGAGTCACCTAGTGCAG”, the binding signal is 10100 fluorescence intensity (a.u.). Then “TCCCACTTGCCGCGCCGCGCAGCCCAGCCATCCATCCACACGGAGTCACCTAGTGCAG”, with 9140 fluorescence intensity (a.u.). Consider “CGTATATGTTACAGTAAGCACGCCTCTTTCTCAATCATTGCGGAGTCACCTAGTGCAG”, for which the binding signal is 8280 fluorescence intensity (a.u.). The same measure for “CTCCATCCGTTTTAAAATGTTTGACACCGTTGACTTTTTACGGAGTCACCTAGTGCAG”: 27300 fluorescence intensity (a.u.).

The record behind these values is publication PMC7819943, “Rice protein-binding microarrays: a tool to detect cis-acting elements near promoter regions in rice”.
